From PMC4763415, “Platinum (IV)-fatty acid conjugates overcome inherently and acquired Cisplatin resistant cancer cell lines: an in-vitro study” (BMC Cancer, 2016)

Assays:
A2780 cells = test: Platinum uptake by ICP-MS, A2780; type: cell-based, human; conditions: 1 h; for platinum accumulated per cells: ICP-MS; for increase in uptake compared to Cisplatin: A2780, derivatives 10 microM vs Cisplatin 50 microM
[1] = test system: A2780 Ctr1- (# 348) cells; test: Platinum uptake by ICP-MS, A2780 Ctr1- (clone #348); type: cell-based, human; conditions: 1 h; for reduction in uptake upon Ctr1 silencing (clone #348) vs A2780: ICP-MS; for effect of Ctr1 silencing on uptake: A2780 Ctr1- clone #348 vs A2780, 10 microM

SMILES	platinum accumulated per cells (A2780 cells; A2780, 10 microM)	increase in uptake compared to Cisplatin (A2780 cells)	reduction in uptake upon Ctr1 silencing (clone #348) vs A2780 [1]	effect of Ctr1 silencing on uptake [1]	platinum accumulated per cells (A2780 cells; A2780, 50 microM)
CCCCCCCCCCCC(=O)[O][Pt]([NH2])([NH2])([Cl])([Cl])[O]C(=O)CCCCCCCCCCC [RJY6, Cis, cis, trans-[diamminedichloro-bis-lauratoplatinum(IV)]]	0.0054 platinum/cells	30 fold	25%	significantly lower	
N.N.[Cl][Pt][Cl] [Cisplatin, cis-Diamminedichloroplatinum (II)]			30%		0.00014 platinum /cells
CCCCCCCC(=O)[O][Pt]([NH2])([NH2])([Cl])([Cl])[O]C(=O)CCCCCCC [RJY13, Cis, cis, trans-[diamminedichloro-bis-octanoatoplatinum (IV)]]	0.0041 platinum/cells	30 fold		not dependent on the presence of Ctr1 protein; also recorded: not affected	

Entries after “also recorded” stand apart in the source; their conditions may differ.
